Source: PubChem BioAssay AID1224830 (NIAID, 2016)
The whole screen tested about 18,000 reagents; this is an unselected part. About 2,900 of them (16%) count as active. 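Calls are made per well; low scores hint the gene aids the LPS response, high scores that it dampens it.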 Entries without a mark were called inactive. Repeated entries: four replicate wells of each siRNA pool.

Purpose: 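Regulators of TLR4 signalling towards TNF-alpha in macrophage-like cells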 (primary screen)
System: human THP-1 monocytic leukaemia cells, TNF dual-luciferase reporter clone, PMA-differentiated to macrophage-like cells
Reagent: siRNA pool against human genes, 50 nM
Time to read-out: LPS for 4 h, given about 3 days after siRNA transfection
Challenge: bacterial LPS (TLR4 ligand), 10 ng/ml
Measurement: 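Ratio of firefly to renilla light, scaled to the plate median and expressed as a robust z-score per replicate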
Direction: TNF reporter robust z-score: higher = stronger TNF reporter response to LPS
Hit rule: 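Each well counts as active if its z-score is over 2.8 or under -1.5; controls are left without a call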

After knock-down of SEC14L1 the results were TNF reporter robust z-score -1.75 (active).
After knock-down of SEC14L1 the results were TNF reporter robust z-score -1.3.
SEC14L1 showed TNF reporter robust z-score -1.32.
SEC14L1 scored TNF reporter robust z-score -1.47.
FYTTD1 showed TNF reporter robust z-score -0.77.
After knock-down of FYTTD1 the results were TNF reporter robust z-score -1.07.
FYTTD1 gave TNF reporter robust z-score -1.35.
FYTTD1 showed TNF reporter robust z-score -1.13.
After knock-down of FUT6 the results were TNF reporter robust z-score 2.06.
For FUT6 the deposit lists TNF reporter robust z-score 2.77.
FUT6 scored TNF reporter robust z-score 1.05.
Knock-down of FUT6 gave: TNF reporter robust z-score 2.99 (active).
After knock-down of C9, the screen gave TNF reporter robust z-score 0.75.
After knock-down of C9 the results were TNF reporter robust z-score 0.22.
C9 gave TNF reporter robust z-score 0.56.
After knock-down of C9, the record shows TNF reporter robust z-score 0.39.
With knock-down of CPNE8 the results were TNF reporter robust z-score 3.11 (active).
Depletion of CPNE8 gave: TNF reporter robust z-score 4.34 (active).
Knock-down of CPNE8 resulted in: TNF reporter robust z-score 3.09 (active).
With knock-down of CPNE8, the record shows TNF reporter robust z-score 3.03 (active).

A run of entries from the list above, for reference:
FUT6 | TNF reporter robust z-score = 2.77
FUT6 | TNF reporter robust z-score = 1.05
FUT6 | TNF reporter robust z-score = 2.99 (active)
C9 | TNF reporter robust z-score = 0.75

The results go on:
Depletion of ANXA8 came out at: TNF reporter robust z-score 1.2.
With knock-down of ANXA8, the screen gave TNF reporter robust z-score 0.34.
After knock-down of ANXA8 the results were TNF reporter robust z-score 0.19.
For ANXA8, the values are TNF reporter robust z-score 0.32.
Depletion of LPA gave: TNF reporter robust z-score -0.49.
After knock-down of LPA, the record shows TNF reporter robust z-score 0.97.
Silencing of LPA came out at: TNF reporter robust z-score -0.71.
With knock-down of LPA the results were TNF reporter robust z-score 1.42.
With knock-down of FBXO7, the screen gave TNF reporter robust z-score 0.92.
For FBXO7, the entry reads TNF reporter robust z-score -0.27.
After knock-down of FBXO7, the screen gave TNF reporter robust z-score 0.26.
Silencing of FBXO7 came out at: TNF reporter robust z-score 0.39.
